Experimental data: patent US20060035291A1, “Method of detecting cellular immunity and application thereof to drugs” (priority 2001, published 2006)
Several values for one entry are separate records, joined by “and”; a condition that tells them apart may be missing. Equal values may be shown once. Part of at least one peptide drawing is inferred or uncertain, most often the ends. Where no end group is shown, it is not given here.

Tests used:
[1] = test system: VA13 fibroblasts; assay: 6-h 51Cr release assay, % specific lysis; type: cell-based, human; details: one line per patient
[2] = test system: cancer patients; assay: Skin test for immediate and delayed type hypersensitivity in cancer patients
Protocol: For the skin test, 10 μg of 5 kinds of peptides was subcutaneously administered to each patient. Saline was used as the negative control. 20 minutes and 24 hours after injection, immediate and delayed type hypersensitivity (DHT) reactions were looked for. The skin test reaction was determined as positive if erythema and sclerosis were more than 10 mm in diameter. If the immediate hypersensitivity reaction was negative, a peptide was administered. Each peptide solution (3 mg/ml) was mixed with the same amount of IFA (Montanide ISA-51) and emulsified in a 5-mI plastic syringe, and 3 ml of the emulsion was subcutaneously administered to the lateral femoral region every two weeks. Serum PSA level was measured 4 weeks after vaccination. The time passed was defined as the time from the registration day to the date when the progress of the target disease was recorded. For patients who chose to discontinue the study without any progress of the target disease (e.g., increase in PSA) it was determined that the disease had progressed at the time the study was stopped.
When an immediate hypersensitivity reaction positive in the skin test of one of these peptides, that peptide was vaccinated if the fifth peptide of criteria A, B, or Z was negative in the skin test. […] In Table 14, o signifies vaccine peptides given to each patient. […]

[3] = test system: SW620 cancer cells or peptide-sensitized C1R-A2402 cells; assay: Kinetic measurement of cellular immune response of post-vaccinated PBMCs (IFN-γ, ELISA); type: cell-based, human
[4] = test system: C1R-A2402 cells sensitized with SART3109, SART3315 or Ick488; assay: CTL precursor frequency in response to peptide-sensitized C1R-A2402 cells; type: cell-based, human; details: for CTL precursor frequency in response to SART3315-323 / CTL precursor frequency in response to Lck488-497 / CTL precursor frequency in response to SART3108-119: one line per patient, dose 0.3, 1 or 3 mg
[5] = Post sample, listed as SART3109-118

Row | Sequence | % specific lysis of VA13 fibroblast ([1]; ET ratio 10, Post sample) [%] | % specific lysis of VA13 fibroblast ([1]; ET ratio 10, Pre sample) [%] | % specific lysis of VA13 fibroblast ([1]; ET ratio 20, Post sample) [%] | % specific lysis of VA13 fibroblast ([1]; ET ratio 20, Pre sample) [%] | % specific lysis of VA13 fibroblast ([1]; ET ratio 40, Post sample) [%] | % specific lysis of VA13 fibroblast ([1]; ET ratio 40, Pre sample) [%] | peptide-specific DTH reaction ([2]; colorectal cancer patient 1) | peptide-specific DTH reaction ([2]; colorectal cancer patient 7, after the 3rd vaccination) | IFN-γ in PBMCs in response to HLA-A24 positive cancer cells ([3]; patient number 001, vaccine injected more than 6 times, 0.3 mg per dose) | IFN-γ produced in response to the corresponding peptide ([3]; patient number 002, vaccination 0.3 mg) | CTL precursor frequency in response to SART3315-323 ([4]; Post sample) | CTL precursor frequency in response to Lck488-497 [4, 5] | CTL precursor frequency in response to SART3108-119 [4, 5] | CTL precursor frequency in response to Lck488-497 ([4]; Pre sample) | CTL precursor frequency in response to SART3108-119 ([4]; Pre sample) | CTL precursor frequency in response to SART3315-323 ([4]; Pre sample, listed as SART3109-118) | CTL precursor frequency responsive to the peptide, after vaccination ([4]; colon cancer patient number 013, after 3 doses of vaccination)
1 | VYDYNCHVDL [SART3109] | 0 | 0 | 0 | 0 | 0 | 0 | detected after the 9th vaccination | exhibited DTH reaction | significant level | significant level | <1/12407 | <26063 and <1/26063 | <1/26063 and 1/631 | <1/26063 | <1/26063 | <1/12407 and 1/314 | 
2 | AYIDFEMKI [SART3315] |  |  |  |  |  |  |  |  |  |  |  |  |  |  |  |  | 1/631
